Measured values taken from PubChem BioAssay AID1347076 (National Center for Advancing Translational Sciences (NCATS), 2019).
Screen size: about 400,000 compounds; about 13,000 (3.2%) were called active. Inconclusive means that the source gave no clear call. Such entries were picked first, then a sample of the others. Calls come from the whole dose curve; as a rule, active = well fitted cell-killing curve with a large enough effect; inconclusive = small, poorly fitted or top-dose-only effect, or effect the other way; inactive = flat fitted curve, though single readings scatter. Potencies beside an inconclusive call are fits to weak or partial responses and may not hold up.

Experiment: qHTS assay for MDR1-selective chemotherapeutics: Primary screen using the drug-selected MDR subline cells KB-V1; note: nearly all actives have a fitted effect of over 60% in size
Conditions: KB-V1 MDR cells viability, CellTiter-Glo, 72 h; activity change, negative = cytotoxicity: at 46.1 µM (top of the series)
Summary of the method: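 In this primary screen, KB-V1 cells overexpressing P-gp are incubated with library compounds (lowest to highest concentration) for 72 h at 37 degrees C before a luminescent ATP viability read.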
% is set by controls: 0 for no effect and ±100 for the full control effect; potency is the fitted concentration of half-maximal effect.

Structure (SMILES) | Potency | activity change, negative = cytotoxicity
CN(C(=O)c1cccc(NC(=O)Cc2ccc(NC(=O)C3CCN(S(=O)(=O)c4cccc([N+](=O)[O-])c4)CC3)cc2)c1)C1CCCCC1 | inconclusive: 9.2 µM [rising, partial curve, poor fit] | 
COc1ccc2c(ccc[n+]2CC(=O)c2ccccc2)c1 | inconclusive: 29.1 µM [rising, single point] | 
CCOC(=O)C1(CCOc2ccccc2)CCN(Cc2ccc(C)o2)CC1 | inconclusive: 16.4 µM [cytotoxic, single point] | 
Cc1ccc(S(=O)(=O)N(C)c2ccc(C(=O)NCc3ccccn3)cc2)cc1 | inconclusive: 23.1 µM [cytotoxic, single point] | 
CN(C)CCCN1C(=O)C(=O)/C(=C(/O)c2ccncc2)C1c1ccccc1 (configuration not stated) | inconclusive: 11.6 µM [rising, partial curve, poor fit] | 
CCCCN(C)C(=O)c1sc(=O)n(Cc2c(C)noc2C)c1C | inconclusive: 23.1 µM [cytotoxic, partial curve, poor fit] | 
COC(=O)Cn1ncc2c3ccccc3n(Cc3ccccc3)c2c1=O | active: 23.1 µM | 
COCC(=O)N1CCC(Oc2ccc(C(=O)NCCCC3CCCC3)cc2)CC1 | active: 9.2 µM | 
COc1ccc(-c2csc(NC(CO)c3nc4ccccc4n3CCCO)n2)cc1 (configuration not stated) | inactive | 
O=C(COC(=O)CC12CC3CC(CC(C3)C1)C2)Nc1ncc(Cl)cc1Cl | inconclusive: 16.4 µM [cytotoxic, partial curve, poor fit] | 
CCN(CC)S(=O)(=O)c1cccc(C(=O)N2CCCc3ccccc32)c1 | inconclusive: 29.1 µM [cytotoxic, single point] | 
CCOc1ccc(NS(=O)(=O)c2ccc(OCC(=O)N3CCCC3)cc2)cc1 | inactive | 
CC(=O)Nc1ccc(-c2nnc(SCC(=O)NCc3ccco3)n2C)cc1 | inconclusive: 0.0073 µM [rising, full curve, poor fit] | 
CCN(CC)S(=O)(=O)c1ccc(N2CCOCC2)c(NC(=O)c2nn(C(C)C)c(=O)c3ccccc23)c1 | inconclusive: 18.4 µM [cytotoxic, partial curve] | 
CCCN1CCCc2cc(CN(CCCN3CCOCC3)C(=O)Nc3ccc(Cl)c(Cl)c3)ccc21 | inconclusive: 0.82 µM [cytotoxic, partial curve, poor fit] | 
COc1cc(C(=O)N2CCN(c3ccccc3OC)CC2)c([N+](=O)[O-])cc1OC | inconclusive: 20.6 µM [cytotoxic, partial curve, poor fit] | 
Cc1cccc2[nH]c3c(N4CC=C(c5ccc(F)cc5)CC4)ncnc3c12 | inactive | 
CCOC(=O)N1CCN(c2cc3nccnc3cc2F)CC1 | active: 20.6 µM | 
COc1ccc(CNC(=O)C(=O)NCC(c2cccnc2)N2CCN(c3ccccc3)CC2)cc1 (configuration not stated) | inactive | 
CCN(C(=O)COC(=O)c1cc2ccccc2cc1OC)c1c(N)n(Cc2ccccc2)c(=O)[nH]c1=O | inconclusive: 29.1 µM [rising, single point] | 
O=C(Nc1nnc(SCc2ccccc2)s1)c1cccc([N+](=O)[O-])c1 | inconclusive: 23.1 µM [cytotoxic, single point] | 
CSCCC(NC(=O)c1ccc([N+](=O)[O-])cc1Cl)C(=O)OCC(=O)NC1CCCC(C)C1C (configuration not stated) | inactive | 
CC1CCN(C(=O)COC(=O)c2ccc(N3CCCC3=O)cc2)CC1 | inconclusive: 18.4 µM [cytotoxic, single point] | 

Gathered by group: those above containing nitrogen in an aromatic ring
Structure (SMILES) | Potency | activity change, negative = cytotoxicity
COc1ccc2c(ccc[n+]2CC(=O)c2ccccc2)c1 | inconclusive: 29.1 µM [rising, single point] | 
Cc1ccc(S(=O)(=O)N(C)c2ccc(C(=O)NCc3ccccn3)cc2)cc1 | inconclusive: 23.1 µM [cytotoxic, single point] | 
CN(C)CCCN1C(=O)C(=O)/C(=C(/O)c2ccncc2)C1c1ccccc1 (configuration not stated) | inconclusive: 11.6 µM [rising, partial curve, poor fit] | 
CCCCN(C)C(=O)c1sc(=O)n(Cc2c(C)noc2C)c1C | inconclusive: 23.1 µM [cytotoxic, partial curve, poor fit] | 
COC(=O)Cn1ncc2c3ccccc3n(Cc3ccccc3)c2c1=O | active: 23.1 µM | 
COc1ccc(-c2csc(NC(CO)c3nc4ccccc4n3CCCO)n2)cc1 (configuration not stated) | inactive | 
O=C(COC(=O)CC12CC3CC(CC(C3)C1)C2)Nc1ncc(Cl)cc1Cl | inconclusive: 16.4 µM [cytotoxic, partial curve, poor fit] | 
CC(=O)Nc1ccc(-c2nnc(SCC(=O)NCc3ccco3)n2C)cc1 | inconclusive: 0.0073 µM [rising, full curve, poor fit] | 
CCN(CC)S(=O)(=O)c1ccc(N2CCOCC2)c(NC(=O)c2nn(C(C)C)c(=O)c3ccccc23)c1 | inconclusive: 18.4 µM [cytotoxic, partial curve] | 
Cc1cccc2[nH]c3c(N4CC=C(c5ccc(F)cc5)CC4)ncnc3c12 | inactive | 
CCOC(=O)N1CCN(c2cc3nccnc3cc2F)CC1 | active: 20.6 µM | 
COc1ccc(CNC(=O)C(=O)NCC(c2cccnc2)N2CCN(c3ccccc3)CC2)cc1 (configuration not stated) | inactive | 
CCN(C(=O)COC(=O)c1cc2ccccc2cc1OC)c1c(N)n(Cc2ccccc2)c(=O)[nH]c1=O | inconclusive: 29.1 µM [rising, single point] | 
O=C(Nc1nnc(SCc2ccccc2)s1)c1cccc([N+](=O)[O-])c1 | inconclusive: 23.1 µM [cytotoxic, single point] | 

2 of the compounds above, as comma-separated lines.
Structure (SMILES),Potency,"activity change, negative = cytotoxicity"
CCOC(=O)C1(CCOc2ccccc2)CCN(Cc2ccc(C)o2)CC1,"inconclusive: 16.4 µM [cytotoxic, single point]",
Cc1ccc(S(=O)(=O)N(C)c2ccc(C(=O)NCc3ccccn3)cc2)cc1,"inconclusive: 23.1 µM [cytotoxic, single point]",

The list continues.

Structure (SMILES) | Potency | activity change, negative = cytotoxicity
O=C(COc1ccccc1)Nc1ccccc1C(=O)NC1CC1 | inconclusive: 29.1 µM [cytotoxic, single point] | 
CCOC(=O)C1(CCCc2ccccc2)CCN(C(=O)c2ccoc2)CC1 | inconclusive: 11.6 µM [cytotoxic, partial curve] | 
Cc1ccc(NC(=O)CCC(=O)N/N=C/c2ccc([N+](=O)[O-])o2)cc1C | inactive | 
O=C(CSC(=S)N1CCSCC1)c1ccc(Cl)cc1 | active: 9.2 µM | 
COc1ccc2sc(N(Cc3cccnc3)C(=O)CCc3ccccc3)nc2c1 |  | inconclusive: 2.12%
Cc1cc2[nH]c(=O)c(=O)[nH]c2cc1S(=O)(=O)N1CCN(c2ccccc2F)CC1 | inconclusive: 23.1 µM [rising, single point] | 
COc1ccccc1CN1C[C@@H]2C[C@@H](c3ccc(C)c(C)c3)N3CCC[C@@]23C1=O | inactive | 
CN(c1ccccc1)c1nc(N)c([N+](=O)[O-])c(N2CCCCC2)n1 | inconclusive: 29.1 µM [cytotoxic, single point] | 
CN1CCc2c(sc3c2C(=O)NC(c2ccco2)N3)C1 (configuration not stated) | inactive | 
CC1CC(C)CN(C(=O)c2cccc3c2-c2ccccc2C3=O)C1 (configuration not stated) | inconclusive: 18.4 µM [cytotoxic, partial curve, poor fit] | 
CCn1c(SCC(=O)Nc2cc(C(C)(C)C)nn2-c2ccccc2)nnc1-c1cccs1 | inconclusive: 6.51 µM [cytotoxic, partial curve] | 
CC(C)COc1ccc(C(=O)N(CC(=O)Nc2ccccc2C(F)(F)F)Cc2ccco2)cc1 | inconclusive: 29.1 µM [cytotoxic, single point] | 
Fc1ccccc1-c1nc(-c2ccncc2)no1 | inconclusive: 20.6 µM [cytotoxic, single point] | 
CCOC(=O)/C(=C\C=C1/Sc2ccccc2N1CC)C(C)=O | active: 5.17 µM | 
Cc1cccc(OCc2nnc(-c3ccc(F)cc3)o2)c1 | inconclusive: 7.31 µM [rising, partial curve, poor fit] | 
Cc1cccc(C(=O)Nc2ccc(N3CCN(C(=O)c4ccco4)CC3)cc2)c1 | inconclusive: 13 µM [cytotoxic, partial curve, poor fit] | 
Cc1c(C(=O)NCc2cccc(C(F)(F)F)c2)sc(=O)n1Cc1ccccc1F | inconclusive: 20.6 µM [cytotoxic, partial curve, poor fit] | 
Cc1cccc(N2CCN(C(=O)c3cnn(-c4ccccc4)c3C3CCN(C(=O)OC(C)(C)C)CC3)CC2)c1C | inactive | 
CCc1nc2nc(C)cc(Nc3cc(C)ccc3C)n2n1 | inactive | 
CC(C)NC(=S)NC(c1ccccc1)(c1ccccc1)c1ccccc1 | inconclusive: 29.1 µM [cytotoxic, single point] | 
O=C(Nc1ccc(Cl)cc1C(=O)NCC1CCCO1)c1ccco1 (configuration not stated) | active: 8.2 µM | 
O=C1CSC(c2cn(-c3ccccc3)nc2-c2cc3ccccc3oc2=O)N1Cc1ccccc1 (configuration not stated) | inactive | 
Cc1cc(C)cc(N=c2c([N+](=O)[O-])nn(-c3cccc(Cl)c3)n2O)c1 | inactive | 

Structure (SMILES) | Potency | activity change, negative = cytotoxicity
COc1ccc(OC)c(CN2CCN(c3ccc(S(=O)(=O)N4CCCC4)cn3)CC2)c1 | inactive | 
O=C(Cc1ccc(NC(=O)C2CCN(C(=O)CCc3ccccc3)CC2)cc1)Nc1ccc(C(=O)N2CCOCC2)cc1 | inconclusive: 32.6 µM [rising, single point] | 
O=C(CSc1nnc(CNC(=O)c2c(F)cccc2F)o1)NCc1ccc2c(c1)OCO2 | inactive | 
CC1CCN(CCNC(=O)c2ccc3c(=O)n(Cc4ccc(Cl)cc4)c(=S)[nH]c3c2)CC1 | inconclusive: 18.4 µM [cytotoxic, single point] | 
CC(=O)N/C(=C\c1ccc(C)cc1)C(=O)O | inconclusive: 32.6 µM [rising, partial curve, poor fit] | 
Clc1ccc(CSc2nncn3c2cc2occc23)cc1 | inconclusive: 7.31 µM [rising, single point] | 
CCCCC(=O)Nc1ccc(C(=O)Nc2ccc(OC)cc2[N+](=O)[O-])cc1 | inconclusive: 8.2 µM [cytotoxic, partial curve] | 
CCCCCCN1CCN(C2CN(Cc3ccccc3)S(=O)(=O)C2)CC1 (configuration not stated) | inactive | 
Cc1nc2nc[nH]n2c(=O)c1NS(=O)(=O)c1ccc(Br)cc1 | inconclusive: 11.6 µM [rising, partial curve] | 
COc1ccc(-c2csc(NC(=O)c3ccc(S(=O)(=O)N4CCc5ccccc5C4)cc3)n2)cc1 | inactive | 
COc1ccc(C(=O)NCCSC2CCCCC2)cc1 | inconclusive: 18.4 µM [cytotoxic, single point] | 
CCCCN(C(=O)CCC(=O)Nc1cc(C)on1)C(C(=O)NC1CCCC1)c1ccc(F)cc1 (configuration not stated) | inconclusive: 7.31 µM [cytotoxic, partial curve] | 
O=C(Nc1ccccc1C(=O)NCC1CCCO1)c1ccc(Cl)cc1Cl (configuration not stated) | active: 6.51 µM | 
O=C(CN1C(=O)COc2ccccc21)N1CCCc2ccccc21 | inconclusive: 23.1 µM [cytotoxic, partial curve, poor fit] | 
O=S(=O)(c1ccc(SCCOc2ccc(Cl)cc2)nc1)N1CCCC1 | inconclusive: 29.1 µM [cytotoxic, single point] | 
CCN1C(=O)[C@H]2[C@@H](c3ccc(C)cc3)N[C@]3(CCCN(Cc4ccco4)C3=O)[C@H]2C1=O | inconclusive: 32.6 µM [rising, single point] | 
COc1cc2c(cc1OC)C(C)N(C(=O)c1cc(C)on1)CC2 (configuration not stated) | active: 4.61 µM | 
CC(C)(C)C(=O)Nc1ccc(N2CCN(C(=O)c3cccs3)CC2)cc1 | inactive | 
O=C(c1cccc(S(=O)(=O)N2CCN(c3ccc(F)cc3)CC2)c1)N1CCCCCCC1 | inconclusive: 23.1 µM [cytotoxic, single point] | 
COc1cc(OC)c(S(=O)(=O)NCc2ccco2)cc1S(=O)(=O)NCc1ccco1 | inactive | 
COP1(=O)C[C@@H](O)[C@@H](O)[C@@H](COCc2ccccc2)O1 (some centres not stated) | inconclusive: 29.1 µM [rising, single point] | 
